Reference: paper PMC9849111
These are yes or no findings as the source states them, for the method shown. Binding seen in cells or lysates may run through a third protein. A yes stands for co-enrichment or nearness to the bait. Other partners may have been found.

Protein sequences, listed by entry. Tags and fused reporters are not part of them.
UniProt P70398: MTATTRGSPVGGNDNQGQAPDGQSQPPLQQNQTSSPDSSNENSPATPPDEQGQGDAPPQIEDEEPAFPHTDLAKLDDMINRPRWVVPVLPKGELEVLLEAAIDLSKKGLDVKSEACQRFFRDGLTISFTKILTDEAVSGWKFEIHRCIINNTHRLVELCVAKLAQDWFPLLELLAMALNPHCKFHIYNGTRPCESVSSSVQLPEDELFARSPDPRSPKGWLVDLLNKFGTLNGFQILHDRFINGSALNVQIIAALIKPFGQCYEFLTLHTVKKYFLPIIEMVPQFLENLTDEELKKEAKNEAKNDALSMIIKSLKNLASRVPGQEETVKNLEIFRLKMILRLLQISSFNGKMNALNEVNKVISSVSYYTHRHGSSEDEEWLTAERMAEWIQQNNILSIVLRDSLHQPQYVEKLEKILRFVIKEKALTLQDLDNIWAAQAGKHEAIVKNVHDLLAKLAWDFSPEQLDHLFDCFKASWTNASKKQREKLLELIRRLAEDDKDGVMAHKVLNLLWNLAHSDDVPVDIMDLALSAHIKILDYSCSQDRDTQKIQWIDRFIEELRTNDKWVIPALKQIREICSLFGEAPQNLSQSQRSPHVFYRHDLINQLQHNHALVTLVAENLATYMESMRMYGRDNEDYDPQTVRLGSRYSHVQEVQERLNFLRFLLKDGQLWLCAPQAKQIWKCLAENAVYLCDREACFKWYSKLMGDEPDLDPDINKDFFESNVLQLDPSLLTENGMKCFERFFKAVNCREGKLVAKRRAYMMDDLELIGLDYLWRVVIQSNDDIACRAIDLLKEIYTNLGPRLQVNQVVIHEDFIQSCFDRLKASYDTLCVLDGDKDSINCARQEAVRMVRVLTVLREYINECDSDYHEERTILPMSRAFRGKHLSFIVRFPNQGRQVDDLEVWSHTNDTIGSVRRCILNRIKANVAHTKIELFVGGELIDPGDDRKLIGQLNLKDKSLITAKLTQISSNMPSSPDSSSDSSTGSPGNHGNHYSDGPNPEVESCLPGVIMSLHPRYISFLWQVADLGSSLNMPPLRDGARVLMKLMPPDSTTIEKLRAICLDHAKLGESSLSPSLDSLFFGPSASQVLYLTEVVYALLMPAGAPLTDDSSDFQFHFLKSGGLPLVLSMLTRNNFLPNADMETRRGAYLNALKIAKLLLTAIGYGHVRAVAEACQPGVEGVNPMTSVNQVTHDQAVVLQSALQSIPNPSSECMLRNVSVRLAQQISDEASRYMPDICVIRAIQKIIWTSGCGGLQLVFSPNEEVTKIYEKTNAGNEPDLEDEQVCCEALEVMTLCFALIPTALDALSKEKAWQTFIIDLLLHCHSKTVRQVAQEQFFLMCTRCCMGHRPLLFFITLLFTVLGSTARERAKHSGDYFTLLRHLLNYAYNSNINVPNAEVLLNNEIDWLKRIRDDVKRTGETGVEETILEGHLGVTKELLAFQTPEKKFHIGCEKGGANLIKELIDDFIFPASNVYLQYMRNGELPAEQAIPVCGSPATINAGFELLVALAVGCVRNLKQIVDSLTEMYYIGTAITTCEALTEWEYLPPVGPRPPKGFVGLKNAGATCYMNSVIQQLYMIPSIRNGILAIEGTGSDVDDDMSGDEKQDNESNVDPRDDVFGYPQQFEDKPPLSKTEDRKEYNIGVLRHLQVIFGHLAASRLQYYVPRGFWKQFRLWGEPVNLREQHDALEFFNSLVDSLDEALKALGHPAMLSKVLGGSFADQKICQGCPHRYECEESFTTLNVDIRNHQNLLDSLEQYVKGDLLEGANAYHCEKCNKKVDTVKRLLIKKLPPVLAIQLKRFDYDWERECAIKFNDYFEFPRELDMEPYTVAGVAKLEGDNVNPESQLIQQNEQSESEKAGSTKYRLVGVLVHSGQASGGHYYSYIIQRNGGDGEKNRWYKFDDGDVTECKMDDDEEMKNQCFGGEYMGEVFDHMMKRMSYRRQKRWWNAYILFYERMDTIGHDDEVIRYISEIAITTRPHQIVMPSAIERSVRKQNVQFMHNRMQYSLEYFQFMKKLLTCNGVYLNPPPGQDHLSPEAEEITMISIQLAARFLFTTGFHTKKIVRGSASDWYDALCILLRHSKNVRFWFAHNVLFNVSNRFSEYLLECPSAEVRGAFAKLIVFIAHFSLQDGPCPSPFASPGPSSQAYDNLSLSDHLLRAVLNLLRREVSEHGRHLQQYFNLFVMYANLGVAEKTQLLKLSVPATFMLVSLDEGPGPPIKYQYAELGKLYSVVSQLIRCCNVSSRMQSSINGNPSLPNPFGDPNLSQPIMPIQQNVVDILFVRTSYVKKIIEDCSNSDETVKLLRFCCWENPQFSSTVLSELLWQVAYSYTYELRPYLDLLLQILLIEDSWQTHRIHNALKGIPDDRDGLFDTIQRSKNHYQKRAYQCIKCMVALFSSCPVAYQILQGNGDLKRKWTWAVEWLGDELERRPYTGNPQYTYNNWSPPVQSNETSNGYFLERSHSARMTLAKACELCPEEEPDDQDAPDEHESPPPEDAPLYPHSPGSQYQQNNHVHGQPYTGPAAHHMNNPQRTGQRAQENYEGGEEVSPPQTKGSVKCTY

Biological target: Flag-NRP1 (Neuropilin-1), transfected in mouse primary HSCs (murine) (UniProt P97333)
Test: affinity purification with mass spectrometry; Flag-NRP1 transfected in mouse primary HSCs for 24 h; Co-IP of cell lysates with Flag beads, Coomassie blue staining, LC-MS/MS

- binding: binds
Substance: USP9X (ubiquitin-specific peptidase 9X), endogenous in mouse HSCs (from UniProt P70398 1-2559) (enzyme)
